The text below walks through data of article PMC3257078 (International Journal of Molecular Sciences, 2011).

* marks the point of attachment. Boc = CC(C)(C)OC(=O)*

The first data set is described as follows: general procedure: solution-phase peptide synthesis; DCC/HOSu; HATU/NMM; ClOCOiBu/NMM. The following applies: coupling step.
Take Boc-Phe-Ada-Met-Met-Met-OH: the step yield stood at 63%.
In turn, Boc-FAMM-OH returned a step yield of 54%.
On to Boc-FGMMM-OH, for which the step yield amounted to 45%.
The substance Boc-FAMMM-OH displayed a step yield of 19%.
As for Boc-Y(Boc)AMMM-OH, the step yield was 19%.

The same data set, now with this note: late stage modification step.
H-Phe-Ala-Met-Met-OH: the step yield came out at 34%.
On the same count and under the same terms, the figure for H-Phe-Ada-Met(O)-Met(O)-Met(O)-OH is 30%.

A further data set in a line: peptide synthesis. Particulars: late stage modification step.
H-Tyr-Ala-Met-Met-Met-OH: the step yield worked out at 24%.
Substance H-Phe-Ala-Met-Met-Met-OH showed a step yield of 25%.
As to H-Phe-Gly-Met-Met-Met-OH, the step yield is on record as 20%.
